PubChem BioAssay AID1159584 – Peter MacCallum Cancer Centre – 2016
Screen: 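Knock-downs that harm CDH1-null cells more than parental MCF10A cells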 (primary screen). System: human MCF10A breast epithelial cells, parental and CDH1-null. Knock-down reagent: siRNA against human genes. Measured: 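Cell viability by CellTiter-Glo ATP luminescence, each line scaled to the mean of mock wells across plates, then CDH1-null over parental ratio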. Scale: CDH1-null / parental viability ratio: higher = CDH1-null cells survive relatively better than parental; CDH1-null viability vs mock: higher = more viable CDH1-null cells.
In all, the deposit lists about 18,000 reagents; this is a part drawn at random. Not all columns of the deposit are shown. Not stated in the record: the amount of reagent, the time to read-out.

target gene,CDH1-null / parental viability ratio,CDH1-null viability vs mock (fraction of mock)
HMHB1 (histocompatibility minor HB-1),1.21,0.8
DCTPP1 (dCTP pyrophosphatase 1),1.1,0.92
MRPL32 (mitochondrial ribosomal protein L32),0.58,0.54
POLR1D (RNA polymerase I and III subunit D),1.42,0.95
"RBBP7 (RB binding protein 7, chromatin remodeling factor)",1.28,0.95
CGB8 (chorionic gonadotropin subunit beta 8),0.77,0.48
ABCC10 (ATP binding cassette subfamily C member 10),0.76,0.67
RTL8A (retrotransposon Gag like 8A),1.84,0.46
BEX3 (brain expressed X-linked 3),1.27,1.02
GSTA4 (glutathione S-transferase alpha 4),0.89,0.68
TMEM202 (transmembrane protein 202),1,0.77
ODAD1 (outer dynein arm docking complex subunit 1),1.2,0.78
EEF2K (eukaryotic elongation factor 2 kinase),0.79,0.64
CIMIP5 (ciliary microtubule inner protein 5),0.88,0.6
OTOR (otoraplin),0.91,0.68
"TOB2 (transducer of ERBB2, 2)",1.07,0.87
GSDME (gasdermin E),1.33,1.17
ACSL1 (acyl-CoA synthetase long chain family member 1),0.72,0.55
GPR34 (G protein-coupled receptor 34),0.89,0.85
NRXN1 (neurexin 1),1.08,0.96
TEAD2 (TEA domain transcription factor 2),0.84,0.76
GOLIM4 (golgi integral membrane protein 4),1.11,0.91
STAT1 (signal transducer and activator of transcription 1),0.93,1
ASPHD2 (aspartate beta-hydroxylase domain containing 2),0.91,0.72
FBXO4 (F-box protein 4),0.94,0.88
TSC2 (TSC complex subunit 2),1.02,0.95
SRGAP3 (SLIT-ROBO Rho GTPase activating protein 3),0.85,0.78
FABP5 (fatty acid binding protein 5),0.9,0.95
CALHM5 (calcium homeostasis modulator family member 5),0.99,0.92
MSLN (mesothelin),1.33,0.44
MT4 (metallothionein 4),0.92,1.03

As entered above:
RTL8A (retrotransposon Gag like 8A), CDH1-null / parental viability ratio → 1.84
POLR1D (RNA polymerase I and III subunit D), CDH1-null viability vs mock (fraction of mock) = 0.95
Value of MRPL32 (mitochondrial ribosomal protein L32) in “CDH1-null / parental viability ratio”: 0.58

More results follow:
target gene,CDH1-null / parental viability ratio,CDH1-null viability vs mock (fraction of mock)
C3 (complement C3),1.05,0.97
ADGRE1 (adhesion G protein-coupled receptor E1),0.79,0.68
PIGP (phosphatidylinositol glycan anchor biosynthesis class P),0.89,0.8
HSPB6 (heat shock protein family B (small) member 6),0.77,0.62
CLEC3B (C-type lectin domain family 3 member B),0.81,0.5
OR4F4 (olfactory receptor family 4 subfamily F member 4),0.99,0.76
BLOC1S2 (biogenesis of lysosomal organelles complex 1 subunit 2),0.95,0.8
MB21D2 (Mab-21 domain containing 2),0.97,0.86
BUB1 (BUB1 mitotic checkpoint serine/threonine kinase),0.98,0.8
GPI (glucose-6-phosphate isomerase),1.27,0.94
FLCN (folliculin),1.39,0.82
POU3F4 (POU class 3 homeobox 4),0.89,0.39
SYT12 (synaptotagmin 12),0.75,0.66
FOLR1 (folate receptor alpha),1.03,0.91
ZBTB18 (zinc finger and BTB domain containing 18),1.01,0.85
ERN1 (endoplasmic reticulum to nucleus signaling 1),1.03,0.68
CFAP70 (cilia and flagella associated protein 70),1.1,0.86
TGM6 (transglutaminase 6),1.18,1.04
SNCAIP (synuclein alpha interacting protein),0.65,0.54
NFATC1 (nuclear factor of activated T cells 1),0.88,0.69
APOH (apolipoprotein H),0.83,0.79
CNN1 (calponin 1),1.13,0.7
GPR153 (G protein-coupled receptor 153),0.76,0.55
ZNF664 (zinc finger protein 664),0.99,0.93
ISL1 (ISL LIM homeobox 1),0.83,0.55
PRKCI (protein kinase C iota),1.04,0.96
TAF5L (TATA-box binding protein associated factor 5 like),1.04,0.84
EPB42 (erythrocyte membrane protein band 4.2),0.79,0.57
TATDN3 (TatD DNase domain containing 3),1.03,0.66
PIGB (phosphatidylinositol glycan anchor biosynthesis class B),1.1,0.9
C9orf43 (chromosome 9 open reading frame 43),0.8,0.66
PML (PML nuclear body scaffold),0.94,0.67
HABP2 (hyaluronan binding protein 2),0.96,0.9
OR4F21 (olfactory receptor family 4 subfamily F member 21),1.3,0.83
LAMC3 (laminin subunit gamma 3),1.12,0.64
TNKS (tankyrase),1.13,1.15
CLINT1 (clathrin interactor 1),1.42,0.37
